Source: patent US10716869B2, “Radiolabeled macrocyclic EGFR inhibitor” (Oncodesign SA, priority 2016, dated 2020)
Some results were stated once for a whole list of compounds, not compound by compound. Some compounds share one range, which may span the group rather than tell each member.

Tests used:
[1] = radiochemical stability in vehicle by HPLC; type: physicochemical; conditions: room temperature, vehicle physiologic serum/ethanol 87.5/12.5
Procedure: By this method, the final radiolabeled compound can be obtained with a radiochemical purity greater than 98% in 100-110 min with a yield that can reach 25% (decay corrected). It has been noticed that an uncompleted evaporation of the solvents used for the purification of [^18F]Fluoroethyltosylate hampers the second step and conducts to lower yields. Specific activity of productions was in the range of […]. The radiolabeled compound is stable in the conditions of formulation as radiochemical purity still greater than 95% 20 h after production with a storage at room temperature.
(§1) After radiosynthesis, the stability of the radiotracer was evaluated by HPLC both in its vehicle and in rat plasma. Compound (I) was formulated in physiologic serum/ethanol with the respective proportion 87.5/12.5 (v/v). A mixture of compounds (I) (i.e. radiolabelled) and (Ia) (i.e. cold analogue) was stable for up to 20 hours at room temperature in its vehicle, only one peak being detected at the expected retention time. In rat plasma two peaks were detected: one at 3.15 minutes and one at 8.02 minutes (corresponding to a mixture of compounds (I) and (Ia)) after an incubation at +37° C. for 4 hours.

plasma stability by HPLC = type: in vitro ADME, rat; conditions: for Plasmatic stability: +37° C.; for area of the compound peak relative to total area of both peaks: rat plasma, +37° C. for 4 hours, HPLC
Procedure: as §1

[2] = biodistribution by ex vivo γ-counting in Sprague Dawley rats; conditions: for uptake in small intestine: 4 hours post-injection
Procedure: To evaluate the biodistribution of the pure S (II) and R (III) enantiomers compared to compound (I), dynamic PET scan imaging and ex vivo gamma counting were performed on Sprague Dawley rats. Animals were injected with the radiotracer solution diluted in NaCl 0.9% to prepare a solution of activity 4-6 MBq (gamma-counting experiments) or 11-13 MBq (PET imaging experiments) in a volume of 300-400 or 600-800 μL, respectively. Radioactivity content in all biological samples was determined with scintillation γ-counter (Cobra 4180, Perkin-Elmer Inc.).
At the light of the biodistribution data of compound (I), the biodistribution of the R (III)- and S (II)-enantiomers was assessed by γ-counting in the organs in which the accumulation of compound (I) was prominent (that is: blood, heart, kidneys, liver, stomach, small intestine and colon). Two timepoints were selected: 5 and 30 minutes post-injection. […] The higher uptakes of R enantiomer (III) and S enantiomer (II) in these organs were expected to be observed at early timepoints after injection, giving the highest signals in the γ-counter and therefore making the comparison of biodistribution data more relevant. Besides, as PET images were acquired with compound (I), PET imaging was included in the evaluation of the biodistribution of R enantiomer and S enantiomer. This gave the opportunity to had one additional timepoint at 4 hours post-injection for collection of major organs and determination of radioactivity content by ex vivo γ-counting.

| Compound | Radiochemical stability [1] | Plasmatic stability (plasma stability by HPLC) | Plasmatic stability (plasma stability by HPLC; listed as I) | area of the compound peak relative to total area of both peaks (plasma stability by HPLC) | uptake in colon ([2]; 5 minutes post-injection) | uptake in colon ([2]; 30 minutes post-injection) | uptake in small intestine [2] | Plasmatic stability (plasma stability by HPLC; listed as Ia) | uptake in colon ([2]; four hours post-injection) |
| --- | --- | --- | --- | --- | --- | --- | --- | --- | --- |
| CC(C)C1NC(=O)Cc2ccc(Cl)cc2Nc2ncnc3cc(OCC[18F])c(cc23)OCCCNC1=O (stereo not shown) [Compound (I)] | ≥ 20 h | ≥ 4 h | >4 h | > 95% | 0.2-0.4 % ID/g | 0.2-0.4 % ID/g | 0.6-0.8 % ID/g | – | – |
| CC(C)C1NC(=O)Cc2ccc(Cl)cc2Nc2ncnc3cc(OCCF)c(cc23)OCCCNC1=O (stereo not shown) [Compound (Ia)] | ≥ 20 h | ≥ 4 h | – | > 95% | – | – | – | >4 h | – |
| CC(C)[C@H]1NC(=O)Cc2ccc(Cl)cc2Nc2ncnc3cc(OCC[18F])c(cc23)OCCCNC1=O [(III)] | – | – | – | – | 0.2-0.4 % ID/g | 0.2-0.4 % ID/g | 0.6-0.8 % ID/g | – | 0.2-0.4 % ID/g |
| CC(C)[C@@H]1NC(=O)Cc2ccc(Cl)cc2Nc2ncnc3cc(OCC[18F])c(cc23)OCCCNC1=O [Compound (II)] | – | – | – | – | 0.2-0.4 % ID/g | 0.2-0.4 % ID/g | 0.6-0.8 % ID/g | – | 0.2-0.4 % ID/g |
